Results deposited as PubChem BioAssay AID1224826 (NIAID, 2016)
In all, the deposit lists about 17,000 reagents; this is an unselected part. Of all reagents, about 1,110 (6.6%) were called active. 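Active means lowered or raised reporter signal; replicate intensities are raw and not normalised per plate.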 A number with no mark means an inactive call. Further read-outs or replicates are left out here.

Aim: 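Genes that change LPS-induced Tnf promoter activity in mouse macrophages when knocked down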 (primary screen)
Cell system: RAW264.7 G9 macrophages from mouse bearing reporters for p65 (GFP) and the Tnf promoter (mCherry)
Reagents: siRNA pool against mouse genes, 100 nM
Time to read-out: 16 h of LPS stimulation, after 2 days of siRNA transfection
Challenge: bacterial lipopolysaccharide (Salmonella minnesota R595), 10 ng/ml
Measured: 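Nuclear mCherry signal of the Tnf promoter reporter measured by imaging after background removal, scaled to each plate median and turned into robust z-scores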
Scale: Tnf reporter robust z-score: higher = stronger Tnf promoter reporter signal after LPS
Call rule: 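Called active when robust z-score is at most -1.3, matching the median of the Tlr4 knock-down control, or over 3; control wells and wells with under 50 cells never active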
Calls: active = Tnf reporter clearly lowered or raised; inactive = no clear change in Tnf reporter

What did the screen give for Slc26a8?
Tnf reporter robust z-score: 0.41; fewer than 50 cells in well: enough cells in well

With Ngp, what was measured?
Tnf reporter robust z-score: -0.05; fewer than 50 cells in well: enough cells in well

What is on record for Nsf?
Tnf reporter robust z-score: -0.24; fewer than 50 cells in well: enough cells in well

Which result is listed for Nipsnap2?
Tnf reporter robust z-score: -0.29; fewer than 50 cells in well: enough cells in well

With C230066G23Rik, what does the deposit list?
fewer than 50 cells in well: fewer than 50 cells per well; well left out of calls

For Mpv17l2, what was measured?
fewer than 50 cells in well: fewer than 50 cells per well; well left out of calls

For Ppp1r14b, what does the deposit list?
Tnf reporter robust z-score: 1.05; fewer than 50 cells in well: enough cells in well

What did the screen give for Thumpd3?
Tnf reporter robust z-score: -0.52; fewer than 50 cells in well: enough cells in well

2 entries from above, reformatted.
{"Target gene": "Ngp", "Tnf reporter robust z-score": -0.05, "fewer than 50 cells in well": "enough cells in well"}
{"Target gene": "Nsf", "Tnf reporter robust z-score": -0.24, "fewer than 50 cells in well": "enough cells in well"}

The results go on:
With Dcun1d1, what was measured?
Tnf reporter robust z-score: -0.02; fewer than 50 cells in well: enough cells in well

For Usp46, what was measured?
Tnf reporter robust z-score: 0.82; fewer than 50 cells in well: enough cells in well

What is on record for Spi1?
Tnf reporter robust z-score: -1.55 (active); fewer than 50 cells in well: enough cells in well

For Snrpe, what does the deposit list?
fewer than 50 cells in well: fewer than 50 cells per well; well left out of calls

What did the screen give for Chchd3?
Tnf reporter robust z-score: 0.51; fewer than 50 cells in well: enough cells in well

With Pold4, what was measured?
fewer than 50 cells in well: fewer than 50 cells per well; well left out of calls
